Measurements from article PMC9709245, “The stem region of α1,6-fucosyltransferase FUT8 is required for multimer formation but not catalytic activity” (The Journal of Biological Chemistry, 2022).

Molecular target: T1, alpha-1,6-fucosyltransferase FUT8 WT (human, UniProt Q9BYC5 1-575)
T1 construct: No chain bears both Myc and 3xFLAG; also called Myc-FUT8; Myc-tagged FUT8; source: HEK293 FUT8KO, transfected, in lysate; not shown: Myc (copy from pcDNA6-mycHisA), C-terminal, kept; His tag (from the vector pcDNA6-mycHisA); 3xFLAG (other copy; from pME-3xFLAG), C-terminal, kept
T1 sequence (looked up): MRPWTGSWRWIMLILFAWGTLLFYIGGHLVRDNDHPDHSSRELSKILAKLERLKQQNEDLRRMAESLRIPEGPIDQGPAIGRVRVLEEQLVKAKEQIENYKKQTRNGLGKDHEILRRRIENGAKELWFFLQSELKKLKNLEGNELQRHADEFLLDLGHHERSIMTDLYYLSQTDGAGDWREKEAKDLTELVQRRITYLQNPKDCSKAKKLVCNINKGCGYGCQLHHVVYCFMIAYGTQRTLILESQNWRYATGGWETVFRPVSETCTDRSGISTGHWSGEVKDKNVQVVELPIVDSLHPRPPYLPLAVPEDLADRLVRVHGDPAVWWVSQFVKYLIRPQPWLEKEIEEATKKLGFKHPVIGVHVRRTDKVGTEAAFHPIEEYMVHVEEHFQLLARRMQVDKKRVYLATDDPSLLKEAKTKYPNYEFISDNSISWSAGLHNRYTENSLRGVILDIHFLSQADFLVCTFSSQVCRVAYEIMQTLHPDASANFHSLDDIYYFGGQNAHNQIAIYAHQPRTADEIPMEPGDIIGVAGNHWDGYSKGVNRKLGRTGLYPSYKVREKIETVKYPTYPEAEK
Assay: co-IP; lysates (TBS, 1% Triton X-100) of HEK293 FUT8KO cells coexpressing Myc-tagged FUT8 WT or mutant with 3xFLAG-FUT8 WT; anti-DYKDDDDK antibody magnetic beads, 4 °C overnight; anti-Myc blot; IP signal divided by input, relative to FUT8 WT

- binding: binds
Substance: FUT8ΔSH3 (from UniProt Q9BYC5) (enzyme)

Results are given in words; binding and its absence hold for the method and conditions named. Binding seen in cells or lysates may run through a third protein. A result given as binding can be weak or reduced; the word gives no strength.
